According to patent US20110171215A1:
No constants are given. Whether binding was seen depends on the method and setting. Some entries that bind do so weakly or less than the wild type.

By UniProt entry, the sequences of proteins in these tests, tags left out. Where a name states a change or a piece, a line headed by the entry shows the natural chain unless it says otherwise. Residues count along the entry.
UniProt Q15116, residues 25-170: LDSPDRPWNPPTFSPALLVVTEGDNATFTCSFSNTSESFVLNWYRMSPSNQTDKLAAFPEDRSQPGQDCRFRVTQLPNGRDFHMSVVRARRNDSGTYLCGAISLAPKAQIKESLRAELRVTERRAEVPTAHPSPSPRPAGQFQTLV
UniProt P31041: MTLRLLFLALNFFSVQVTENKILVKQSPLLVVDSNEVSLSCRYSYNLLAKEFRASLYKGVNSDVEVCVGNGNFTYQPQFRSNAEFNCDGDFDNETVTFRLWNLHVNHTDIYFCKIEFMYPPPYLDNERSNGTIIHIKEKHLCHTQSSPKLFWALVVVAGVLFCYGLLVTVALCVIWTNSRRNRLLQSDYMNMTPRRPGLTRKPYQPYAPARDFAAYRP
UniProt P24161: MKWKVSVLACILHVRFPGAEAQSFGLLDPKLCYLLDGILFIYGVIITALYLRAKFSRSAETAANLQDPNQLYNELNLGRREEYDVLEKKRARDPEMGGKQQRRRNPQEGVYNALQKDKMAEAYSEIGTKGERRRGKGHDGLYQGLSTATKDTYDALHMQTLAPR

Key:
[1] = target: human PD-1 extracellular region / murine CD28 chimera, mutant V18R, on HEK-293T cells (human; mouse) (UniProt Q15116+P31041); assay: flow cytometry on transfected HEK-293T cells
[2] = target: hPD-1/mCD3ζWT/mCD28 chimera expressed in DO11.10 cells (human; mouse) (UniProt Q15116+P24161+P31041); assay: told with the IL-2 release assay on DO11.10 cells carrying the chimera
[3] = target: Monomeric soluble human PD-1 (human) (UniProt Q15116); assay: SPR; antibody captured by rabbit anti-mouse Fc, soluble PD-1 injected to saturating levels
[4] = target: human PD-1 extracellular region / murine CD28 chimera, mutant R118D, on HEK-293T cells (human; mouse) (UniProt Q15116+P31041); assay: flow cytometry on transfected HEK-293T cells
[5] = target: human PD-1 extracellular region / murine CD28 chimera, mutant L16R, on HEK-293T cells (human; mouse) (UniProt Q15116+P31041); assay: flow cytometry on transfected HEK-293T cells
[6] = target: Monomeric soluble human PD-1 (human) (UniProt Q15116); assay: SPR (FIG. 12)

Measured: binding

B1: Clone 19 anti-PD-1 antibody (antibody, IgG1, V domains shown)
VH: QVQLQQSGAELVKPGASVKMSCKAFGYTFTTYPIEWMKQNHGKSLEWIGNFHPYNDDTKYNEKFKGKAKLTVEKSSTTVYLELSRLTSDDSAVYYCARENYGSHGGFVYWGQGTLVTV
VL: ENVLTQSPAIMSASPGEKVTMTCRASSSVISSYLHWYQQKSGASPKLWIYSTSNLASGVPDRFSGSGSGTSYSLTISSVEAEDAATYYCQQYNGYPLTFGAGTKLEIK
binds: [1] | [2] | [3]

B2: Clone 10 anti-PD-1 antibody (antibody, IgG1, V domains shown)
VH: DVQLQESGPGLVKPSQSLSLTCTVTGYSITSDYAWNWIRQFPGNKLEWMGYINYSGSTSYNPSLKSRISITRDTSKNQFFLQLNSVTTEDTATYYCARWIGSSAWYFDVWGAGTTVTV
VL: DVLMTQTPLSLPVSLGDQASISCRSGQNIVHSNGNTYLEWYLQKPGQSPKLLIYKVSNRFFGVPDRISGSGSGTDFTLKISRVEAEDLGVYFCFQGSHVPFTFGSGTKLEIK
binds: [4] | [5] | [1] | [6] | [3]

B3: Clone 2 anti-PD-1 antibody (antibody, V domains shown)
VH: QVQLQQPGAELVKPGASVKLSCKASGYTFTTYYLYWVRQRPGQGLEWIGGINPSNGGTNFNEKFKSKATLTVDKSSSTAYMQLNSLTSEDSAVYYCTRRDYRYDRGFDYWGQGTSVTV
VL: DIVLTQSPASLAVSLGQRATISCRASKSVSTSGFNYIHWYQQKPGQPPKLLIYLASNLESGVPARFSGSGSGTDFTLNIHPVEDEDAATYYCQHSRELPLTFGAGTKLEIK
binds: [3]
